Reference: paper PMC11549326
No constants are given. Whether binding was seen depends on the method and setting. In cells and extracts the contact can be indirect. Some results given as binding are weak or reduced against the parent protein; the word gives no strength.

Protein sequences, listed by entry. Tags and fused reporters are not part of them.
UniProt Q01815: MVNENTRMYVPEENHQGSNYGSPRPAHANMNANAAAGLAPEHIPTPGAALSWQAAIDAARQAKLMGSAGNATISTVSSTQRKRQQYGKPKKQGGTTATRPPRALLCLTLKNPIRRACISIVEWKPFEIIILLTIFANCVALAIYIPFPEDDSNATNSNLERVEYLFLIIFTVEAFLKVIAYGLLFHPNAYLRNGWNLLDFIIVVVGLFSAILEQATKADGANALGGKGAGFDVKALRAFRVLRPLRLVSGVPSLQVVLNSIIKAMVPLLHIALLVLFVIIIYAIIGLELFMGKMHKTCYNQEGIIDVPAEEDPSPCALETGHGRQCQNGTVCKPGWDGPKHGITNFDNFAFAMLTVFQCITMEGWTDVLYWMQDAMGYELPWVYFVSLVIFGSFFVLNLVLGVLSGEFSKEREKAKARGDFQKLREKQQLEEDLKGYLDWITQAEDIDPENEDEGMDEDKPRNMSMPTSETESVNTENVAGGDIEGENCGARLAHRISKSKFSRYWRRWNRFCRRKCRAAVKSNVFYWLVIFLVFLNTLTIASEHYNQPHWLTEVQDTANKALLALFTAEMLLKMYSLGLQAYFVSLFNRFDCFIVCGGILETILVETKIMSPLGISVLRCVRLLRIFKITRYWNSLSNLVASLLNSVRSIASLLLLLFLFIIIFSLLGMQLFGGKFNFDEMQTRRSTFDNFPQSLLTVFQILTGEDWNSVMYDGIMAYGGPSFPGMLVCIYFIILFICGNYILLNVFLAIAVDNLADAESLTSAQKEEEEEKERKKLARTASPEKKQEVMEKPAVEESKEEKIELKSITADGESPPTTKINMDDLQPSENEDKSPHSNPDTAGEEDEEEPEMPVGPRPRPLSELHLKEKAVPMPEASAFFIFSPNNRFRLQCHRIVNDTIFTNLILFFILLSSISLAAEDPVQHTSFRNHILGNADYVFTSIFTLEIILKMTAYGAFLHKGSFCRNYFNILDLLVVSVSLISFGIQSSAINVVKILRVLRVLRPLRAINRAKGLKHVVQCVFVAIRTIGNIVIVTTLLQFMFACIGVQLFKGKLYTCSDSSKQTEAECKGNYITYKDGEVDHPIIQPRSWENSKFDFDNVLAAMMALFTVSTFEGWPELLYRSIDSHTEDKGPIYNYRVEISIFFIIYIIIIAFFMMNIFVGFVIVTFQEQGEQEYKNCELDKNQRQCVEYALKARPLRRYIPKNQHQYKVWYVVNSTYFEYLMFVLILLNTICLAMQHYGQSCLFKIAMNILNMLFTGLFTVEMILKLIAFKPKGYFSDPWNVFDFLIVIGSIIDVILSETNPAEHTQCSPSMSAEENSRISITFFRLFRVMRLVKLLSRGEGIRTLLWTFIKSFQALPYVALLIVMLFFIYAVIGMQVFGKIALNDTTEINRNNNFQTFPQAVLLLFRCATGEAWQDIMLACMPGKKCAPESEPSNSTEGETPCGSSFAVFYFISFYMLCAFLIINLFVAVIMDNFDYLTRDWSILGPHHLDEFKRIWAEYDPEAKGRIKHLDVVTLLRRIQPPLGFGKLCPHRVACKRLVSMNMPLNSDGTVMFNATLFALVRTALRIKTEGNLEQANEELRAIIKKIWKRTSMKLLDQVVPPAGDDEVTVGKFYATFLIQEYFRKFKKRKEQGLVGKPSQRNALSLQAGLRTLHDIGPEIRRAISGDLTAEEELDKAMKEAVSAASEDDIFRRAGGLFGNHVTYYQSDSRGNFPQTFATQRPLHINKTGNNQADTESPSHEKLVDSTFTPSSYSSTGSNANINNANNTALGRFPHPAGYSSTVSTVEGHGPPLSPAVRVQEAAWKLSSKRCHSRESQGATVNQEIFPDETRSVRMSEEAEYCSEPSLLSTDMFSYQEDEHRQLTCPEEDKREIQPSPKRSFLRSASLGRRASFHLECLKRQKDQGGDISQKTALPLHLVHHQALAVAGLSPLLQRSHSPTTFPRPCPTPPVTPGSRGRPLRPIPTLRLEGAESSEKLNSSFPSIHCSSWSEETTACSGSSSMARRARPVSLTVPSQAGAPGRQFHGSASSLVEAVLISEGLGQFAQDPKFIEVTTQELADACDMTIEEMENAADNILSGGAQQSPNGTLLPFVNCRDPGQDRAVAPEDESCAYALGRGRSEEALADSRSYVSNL

T1: KATP channel subunit Kir6.2 (mouse (endogenous in MIN6)) (UniProt Q61743)
T1 sequence: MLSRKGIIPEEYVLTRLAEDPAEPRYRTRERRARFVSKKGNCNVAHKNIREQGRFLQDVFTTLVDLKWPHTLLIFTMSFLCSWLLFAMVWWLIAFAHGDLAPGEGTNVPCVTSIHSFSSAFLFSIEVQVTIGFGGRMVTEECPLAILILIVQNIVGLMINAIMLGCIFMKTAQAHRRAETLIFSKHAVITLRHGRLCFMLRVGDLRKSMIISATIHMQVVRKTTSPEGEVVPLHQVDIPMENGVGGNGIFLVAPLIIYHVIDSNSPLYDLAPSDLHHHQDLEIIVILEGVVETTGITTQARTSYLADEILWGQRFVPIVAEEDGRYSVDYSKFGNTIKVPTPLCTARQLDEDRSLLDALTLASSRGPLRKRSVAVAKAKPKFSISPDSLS

B1: derlin-1 (protein, UniProt Q99J56 1-251)
chain: MSDIGDWFRSIPAITRYWFAATVAVPLIGKLGIISPAYFFLWPEAFLYRFQIWRPFTATFYFPVGPGTGFLYLVNLYFLYQYSTRLEAGAFDGRPADYLFMLLFNWICIVITGLAMDMQLLMIPLIMSVLYVWAQLNRDLIVSFWFGTRFKACYLPWVILGFNYIIGGSVINELIGNLVGHLYFFLMFRYPMDLGGRNFLSTPQFLYRWLPSRRGGVSGFGVPPASMRRAADQNGGGGRHNWGQGFRLGDQ
B2: derlin-1, Q99J56 1-251 (protein)
chain: B1 chain
B3: calnexin-1 (protein, UniProt P35564 21-591)
chain: HDGHDDDAIDIEDDLDDVIEEVEDSKSKSDASTPPSPKVTYKAPVPTGEVYFADSFDRGSLSGWILSKAKKDDTDDEIAKYDGKWEVDEMKETKLPGDKGLVLMSRAKHHAISAKLNKPFLFDTKPLIVQYEVNFQNGIECGGAYVKLLSKTAELSLDQFHDKTPYTIMFGPDKCGEDYKLHFIFRHKNPKTGVYEEKHAKRPDADLKTYFTDKKTHLYTLILNPDNSFEILVDQSVVNSGNLLNDMTPPVNPSREIEDPEDRKPEDWDERPKIADPDAVKPDDWDEDAPSKIPDEEATKPEGWLDDEPEYIPDPDAEKPEDWDEDMDGEWEAPQIANPKCESAPGCGVWQRPMIDNPNYKGKWKPPMIDNPNYQGIWKPRKIPNPDFFEDLEPFKMTPFSAIGLELWSMTSDIFFDNFIISGDRRVVDDWANDGWGLKKAADGAAEPGVVLQMLEAAEERPWLWVVYILTVALPVFLVILFCCSGKKQSNAMEYKKTDAPQPDVKDEEGKEEEKNKRDEEEEEEKLEEKQKSDAEEDGVTGSQDEEDSKPKAEEDEILNRSPRNRKPRRE

Columns and labels:
Experiment in all cases: co-IP; vesicle IP of MIN6 postnuclear fractions (10 mM HEPES pH 7.4, 150 mM NaCl, 0.1% Triton X-100) on protein A beads with anti-CaV1.2, anti-Kir6.2 or anti-STIP1 antibody or normal rabbit IgG, immunoblotting; cells transduced with scrambled-control or KIF5B-knockdown miRNA for 6 days and treated with 10 uM MG-132 for 6 h; also non-transduced against KIF5B- and Hsc70-overexpressing cells
[1] = target: T1, KATP channel subunit Kir6.2 (mouse (endogenous in MIN6))
[2] = target: voltage-gated calcium channel CaV1.2 (mouse (endogenous in MIN6 and in mouse primary beta cells)), Q01815; conditions: remark: other sources report otherwise
[3] = target: voltage-gated calcium channel CaV1.2 (mouse (endogenous in MIN6 and in mouse primary beta cells)) (UniProt Q01815)

Binder | binding [1] | binding [2] | binding [3]
B1 | binds weakly | – | –
B2 | – | binds | –
B3 | binds weakly | – | binds
